Laboratory results from PMC4868538.
No constants are given. Whether binding was seen depends on the method and setting. Some results given as binding are weak or reduced against the parent protein; the word gives no strength. Where a sequence is shown, tags or fusion partners need not be part of it.

Amino acid sequences for entries named in this document (tags omitted). A change or cut given only in a name is not applied to a line headed by its entry.
UniProt P53708: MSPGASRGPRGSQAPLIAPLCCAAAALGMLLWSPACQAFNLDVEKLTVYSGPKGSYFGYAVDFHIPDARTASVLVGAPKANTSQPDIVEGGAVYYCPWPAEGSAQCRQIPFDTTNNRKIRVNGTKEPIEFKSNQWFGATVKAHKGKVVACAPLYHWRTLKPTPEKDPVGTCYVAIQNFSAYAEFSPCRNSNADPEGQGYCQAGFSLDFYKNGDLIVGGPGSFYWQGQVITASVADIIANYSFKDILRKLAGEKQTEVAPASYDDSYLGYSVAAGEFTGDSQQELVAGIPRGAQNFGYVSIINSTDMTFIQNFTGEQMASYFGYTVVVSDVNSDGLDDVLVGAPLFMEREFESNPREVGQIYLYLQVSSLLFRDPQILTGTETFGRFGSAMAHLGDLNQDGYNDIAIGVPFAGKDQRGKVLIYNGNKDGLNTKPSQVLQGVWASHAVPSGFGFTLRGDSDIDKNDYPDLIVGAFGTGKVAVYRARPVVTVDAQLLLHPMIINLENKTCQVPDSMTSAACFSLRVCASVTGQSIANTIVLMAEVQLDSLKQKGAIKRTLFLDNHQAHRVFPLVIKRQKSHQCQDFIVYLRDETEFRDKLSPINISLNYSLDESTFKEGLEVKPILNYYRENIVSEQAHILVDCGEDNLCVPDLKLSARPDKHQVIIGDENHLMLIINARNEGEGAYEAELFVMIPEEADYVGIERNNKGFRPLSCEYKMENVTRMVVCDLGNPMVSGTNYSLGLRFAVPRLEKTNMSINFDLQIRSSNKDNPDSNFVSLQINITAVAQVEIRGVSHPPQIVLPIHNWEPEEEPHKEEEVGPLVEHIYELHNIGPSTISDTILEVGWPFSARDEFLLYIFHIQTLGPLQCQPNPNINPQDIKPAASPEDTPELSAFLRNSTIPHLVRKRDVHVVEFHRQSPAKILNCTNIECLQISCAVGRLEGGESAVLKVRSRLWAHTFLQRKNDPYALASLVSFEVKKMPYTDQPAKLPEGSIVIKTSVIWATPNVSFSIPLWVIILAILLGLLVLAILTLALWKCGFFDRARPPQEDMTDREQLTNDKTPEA
UniProt P06756: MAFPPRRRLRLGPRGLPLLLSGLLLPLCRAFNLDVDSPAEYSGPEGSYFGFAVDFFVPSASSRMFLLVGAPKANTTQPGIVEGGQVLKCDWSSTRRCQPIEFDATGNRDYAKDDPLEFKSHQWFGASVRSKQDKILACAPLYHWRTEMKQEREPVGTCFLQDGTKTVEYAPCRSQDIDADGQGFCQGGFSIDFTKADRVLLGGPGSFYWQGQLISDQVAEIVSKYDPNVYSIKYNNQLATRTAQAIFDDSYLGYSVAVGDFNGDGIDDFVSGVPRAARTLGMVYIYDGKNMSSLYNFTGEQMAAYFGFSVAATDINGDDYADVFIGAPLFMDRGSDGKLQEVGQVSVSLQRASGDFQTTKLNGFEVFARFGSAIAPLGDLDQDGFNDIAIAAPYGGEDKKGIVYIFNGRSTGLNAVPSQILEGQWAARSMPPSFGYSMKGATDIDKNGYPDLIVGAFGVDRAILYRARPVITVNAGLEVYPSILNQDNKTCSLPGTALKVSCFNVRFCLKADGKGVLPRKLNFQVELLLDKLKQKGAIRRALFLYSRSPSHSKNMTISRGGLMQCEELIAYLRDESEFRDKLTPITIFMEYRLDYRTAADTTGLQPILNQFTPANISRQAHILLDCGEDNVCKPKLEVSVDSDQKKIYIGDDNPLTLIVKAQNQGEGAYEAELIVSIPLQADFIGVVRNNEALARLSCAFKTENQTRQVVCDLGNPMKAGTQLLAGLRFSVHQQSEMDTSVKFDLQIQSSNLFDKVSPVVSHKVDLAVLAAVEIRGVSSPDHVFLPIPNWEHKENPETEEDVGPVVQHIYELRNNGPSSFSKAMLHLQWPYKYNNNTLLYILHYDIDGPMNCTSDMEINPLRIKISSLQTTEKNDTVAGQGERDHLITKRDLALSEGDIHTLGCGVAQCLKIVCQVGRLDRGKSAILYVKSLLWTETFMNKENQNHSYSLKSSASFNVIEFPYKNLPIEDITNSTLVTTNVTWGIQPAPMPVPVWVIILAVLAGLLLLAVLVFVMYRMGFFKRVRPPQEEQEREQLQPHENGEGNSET

Each substance was assayed against T1, recombinant Mfge8 (Milk fat Globule Epidermal Growth Factor like 8), fusion protein of full length Mfge8 and a human Fc domain (UniProt P21956) (assay: cell adhesion assay; 1 x 10^5 cells seeded into wells of 96 well MaxiSorp plates coated with rMfge8 (5 µg/ml or a dose range), 1 hr at 37°C; attached cells stained with crystal violet, optical density at 595 nm; blocking antibodies (5 µg/ml) 15 min on ice before plating; only the target purified).
T1 sequence: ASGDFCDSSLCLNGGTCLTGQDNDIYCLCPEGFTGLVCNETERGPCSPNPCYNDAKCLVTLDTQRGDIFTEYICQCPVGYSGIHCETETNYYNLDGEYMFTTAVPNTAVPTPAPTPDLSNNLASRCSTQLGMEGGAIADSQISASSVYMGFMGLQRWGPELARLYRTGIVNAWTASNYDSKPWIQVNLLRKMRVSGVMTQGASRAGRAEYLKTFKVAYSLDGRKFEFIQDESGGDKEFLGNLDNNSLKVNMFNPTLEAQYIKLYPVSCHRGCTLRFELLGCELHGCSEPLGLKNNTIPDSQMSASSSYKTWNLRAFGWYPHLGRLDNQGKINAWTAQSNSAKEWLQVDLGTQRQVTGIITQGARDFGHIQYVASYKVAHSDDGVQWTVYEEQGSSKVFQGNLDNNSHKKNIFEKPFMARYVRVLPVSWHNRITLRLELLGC

Row | Substance | binding
1 | α8β1 integrin on primary human gastric smooth muscle cells (from UniProt P53708 39-1063; P05556 21-798) (receptor) | binds
2 | α8β1 integrin on α8-transfected SW480 cells (from UniProt P53708 39-1063; P05556 21-798) (receptor) | binds
3 | αvβ3 integrin on β3-transfected SW480 cells (from UniProt P06756 31-1048; P05106 27-788) (receptor) | binds
4 | αvβ5 integrin on mock-transfected control SW480 cells (from UniProt P06756 31-1048; P18084 24-799) (receptor) | binds
5 | αvβ5 integrin on primary human gastric smooth muscle cells (from UniProt P06756 31-1048; P18084 24-799) (receptor) | binds
